Patent US20150079089A1, “EMP2 REGULATES ANGIOGENESIS IN CANCER CELLS THROUGH INDUCTION OF VEGF” (THE REGENTS OF THE UNIVERSITY OF CALIFORNIA, priority 2012, published 2015)
“Also recorded” adds a separate entry of the source. For at least one compound, name, drawing or mass did not settle the structure.

Tested on: HIF-1a
Assay: HIF-1a expression by Western blot in HEC1a/EMP2 cells treated with kinase inhibitors in a hypoxic chamber
Assay type: cell-based, human
Settings: 24 hrs, 1.0% hypoxic chamber
Experimental: To determine if EMP2 expression altered VEGF expression and secretion, cells were placed in a hypoxic chamber for 24 hours. EMP2 expression directly correlated with VEGF protein levels (FIG. 4B) as well as with secreted protein (FIG. 4C). […] Western blot analysis was carried out by Cells were lysed in Laemmli buffer. Proteins were separated by SDS-PAGE, transferred to a nitrocellulose membrane (Amersham Biosciences), and stained with Ponceau S (Sigma-Aldrich, St. Louis, Mo.) to determine transfer efficiency. Membranes were blocked with 10% low fat milk in PBS containing 0.1% Tween 20 and probed with EMP2 antisera (1:1000), anti-VEGF (Santa Cruz Biotech), antiHIF-1a (1:800; BD Biosciences), anti-PPAR-y (Santa Cruz Biotech), anti-p-Src (Cell Signaling, Danvers). […] Band intensities were quantified using the NIH program Image J as above. […] At least three independent experiments were performed and, where indicated, the results were evaluated for statistical significance using a Student's t-test (unpaired, one-tail). […]
In some experiments, inhibitors were added to determine the contribution of specific pathways to HIF-1a expression. […] Efficacy of the inhibitors was tested at the manufacturer's recommended dosage, and potential toxicity was measured using trypan-blue exclusion. […]

In the case of `Cc1nc(Nc2ncc(C(=O)Nc3c(C)cccc3Cl)s2)cc(N2CCN(CCO)CC2)n1` [dasatinib, Dasatinib], the “EMP2-induced HIF-1a expression” value is reported as “reversed”.

For `O=c1cc(N2CCOCC2)oc2c(-c3ccccc3)cccc12` [Ly294002], the “EMP2-induced HIF-1a expression” value was “produced a similar effect; also recorded: sufficient to inhibit its expression”.
